Results taken from paper doi:10.1101/2023.04.25.538284 (bioRxiv, 2023).
These are yes or no findings as the source states them, for the method shown. Binding seen in cells or lysates may run through a third protein. Some results given as binding are weak or reduced against the parent protein; the word gives no strength. Where a sequence is shown, tags or fusion partners need not be part of it.

Assays:
Test in all cases: split reporter
[1] = molecular target: T1, SnRK2.6-nLUC (Arabidopsis thaliana) (UniProt Q940H6)
T1 sequence: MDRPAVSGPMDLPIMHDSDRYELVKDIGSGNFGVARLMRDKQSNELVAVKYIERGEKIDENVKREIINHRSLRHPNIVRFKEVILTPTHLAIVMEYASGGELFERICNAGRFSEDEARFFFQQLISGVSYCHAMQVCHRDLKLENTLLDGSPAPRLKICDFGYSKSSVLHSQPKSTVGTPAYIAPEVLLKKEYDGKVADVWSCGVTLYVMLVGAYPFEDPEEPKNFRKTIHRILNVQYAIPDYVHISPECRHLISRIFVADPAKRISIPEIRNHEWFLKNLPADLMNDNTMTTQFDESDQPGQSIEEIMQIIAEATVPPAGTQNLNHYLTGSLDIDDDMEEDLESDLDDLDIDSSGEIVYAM

[2] = molecular target: T2, SnRK2.10-nLUC (Arabidopsis thaliana) (UniProt Q9C958)
T2 sequence: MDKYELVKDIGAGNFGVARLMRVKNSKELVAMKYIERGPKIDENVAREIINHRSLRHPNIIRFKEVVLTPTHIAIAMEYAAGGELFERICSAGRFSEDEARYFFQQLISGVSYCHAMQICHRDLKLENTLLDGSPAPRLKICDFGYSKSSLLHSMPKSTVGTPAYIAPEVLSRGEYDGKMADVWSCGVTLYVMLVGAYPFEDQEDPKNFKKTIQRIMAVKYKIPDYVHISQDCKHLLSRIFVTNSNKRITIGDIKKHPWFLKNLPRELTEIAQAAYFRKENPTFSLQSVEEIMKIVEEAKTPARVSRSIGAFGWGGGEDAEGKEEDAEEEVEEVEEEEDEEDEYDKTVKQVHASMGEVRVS

[3] = molecular target: T3, SnRK2.7-nLUC (Arabidopsis thaliana) (UniProt Q9SMQ4)
T3 sequence: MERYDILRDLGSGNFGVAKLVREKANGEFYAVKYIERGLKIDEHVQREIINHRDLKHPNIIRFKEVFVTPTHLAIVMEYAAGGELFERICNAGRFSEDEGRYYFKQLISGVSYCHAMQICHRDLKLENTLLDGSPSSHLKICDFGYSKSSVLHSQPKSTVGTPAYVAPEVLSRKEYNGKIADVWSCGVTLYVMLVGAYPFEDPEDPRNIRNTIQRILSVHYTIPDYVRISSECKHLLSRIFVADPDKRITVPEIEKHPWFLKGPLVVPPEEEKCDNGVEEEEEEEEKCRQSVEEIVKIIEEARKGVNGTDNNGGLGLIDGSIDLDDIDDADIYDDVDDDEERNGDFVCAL

[4] = molecular target: T4, SnRK2.2-nLUC (Arabidopsis thaliana) (UniProt Q39192)
T4 sequence: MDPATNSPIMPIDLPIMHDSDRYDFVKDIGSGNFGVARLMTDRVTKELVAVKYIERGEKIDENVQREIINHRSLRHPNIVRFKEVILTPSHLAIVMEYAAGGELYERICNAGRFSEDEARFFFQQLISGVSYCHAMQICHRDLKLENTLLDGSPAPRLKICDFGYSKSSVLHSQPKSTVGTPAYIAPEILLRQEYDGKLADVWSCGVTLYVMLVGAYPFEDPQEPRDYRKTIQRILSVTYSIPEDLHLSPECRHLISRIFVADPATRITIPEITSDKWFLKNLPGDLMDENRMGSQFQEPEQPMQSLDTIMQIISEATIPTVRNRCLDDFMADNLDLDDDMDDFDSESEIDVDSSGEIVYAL

[5] = molecular target: T5, SnRK2.1-nLUC (Arabidopsis thaliana) (UniProt P43292)
T5 sequence: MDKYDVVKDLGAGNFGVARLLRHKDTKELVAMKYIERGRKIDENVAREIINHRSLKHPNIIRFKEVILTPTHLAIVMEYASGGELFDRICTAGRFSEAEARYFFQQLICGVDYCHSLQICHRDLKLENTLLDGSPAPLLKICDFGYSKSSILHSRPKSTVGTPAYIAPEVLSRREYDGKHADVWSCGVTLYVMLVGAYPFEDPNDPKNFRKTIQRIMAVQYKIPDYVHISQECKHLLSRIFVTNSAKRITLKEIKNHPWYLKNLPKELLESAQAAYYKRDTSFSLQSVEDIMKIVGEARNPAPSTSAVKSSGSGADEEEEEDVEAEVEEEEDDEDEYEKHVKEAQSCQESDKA

[6] = molecular target: T6, SnRK2.9-nLUC (Arabidopsis thaliana) (UniProt O64812)
T6 sequence: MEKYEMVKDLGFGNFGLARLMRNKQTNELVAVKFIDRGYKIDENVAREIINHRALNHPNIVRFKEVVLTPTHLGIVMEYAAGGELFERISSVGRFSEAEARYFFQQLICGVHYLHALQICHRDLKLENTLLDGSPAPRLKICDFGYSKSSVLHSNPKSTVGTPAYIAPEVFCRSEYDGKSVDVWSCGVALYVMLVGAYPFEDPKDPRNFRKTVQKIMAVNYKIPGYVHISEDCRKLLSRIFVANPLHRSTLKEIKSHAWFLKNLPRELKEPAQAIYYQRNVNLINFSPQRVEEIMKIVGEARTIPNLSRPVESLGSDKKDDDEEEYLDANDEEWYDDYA

B1: SIZ1-cLUC (enzyme, UniProt Q680Q4-3 1-873)
chain: MDLEANCKEKLSYFRIKELKDVLTQLGLSKQGKKQELVDRILTLLSDEQAARLLSKKNTVAKEAVAKLVDDTYRKMQVSGASDLASKGQVSSDTSNLKVKGEPEDPFQPEIKVRCVCGNSLETDSMIQCEDPRCHVWQHVGCVILPDKPMDGNPPLPESFYCEICRLTRADPFWVTVAHPLSPVRLTATTIPNDGASTMQSVERTFQITRADKDLLAKPEYDVQAWCMLLNDKVLFRMQWPQYADLQVNGVPVRAINRPGGQLLGVNGRDDGPIITSCIRDGVNRISLSGGDVRIFCFGVRLVKRRTLQQVLNLIPEEGKGETFEDALARVRRCIGGGGGDDNADSDSDIEVVADFFGVNLRCPMSGSRIKVAGRFLPCVHMGCFDLDVFVELNQRSRKWQCPICLKNYSVEHVIVDPYFNRITSKMKHCDEEVTEIEVKPDGSWRVKFKRESERRELGELSQWHAPDGSLCPSAVDIKRKMEMLPVKQEGYSDGPAPLKLGIRKNRNGIWEVSKPNTNGLSSSNRQEKVGYQEKNIIPMSSSATGSGRDGDDASVNQDAIGTFDFVANGMELDSISMNVDSGYNFPDRNQSGEGGNNEVIVLSDSDDENDLVITPGPAYSGCQTDGGLTFPLNPPGIINSYNEDPHSIAGGSSGLGLFNDDDEFDTPLWSFPSETPEAPGFQLFRSDADVSGGLVGLHHHSPLNCSPEINGGYTMAPETSMASVPVVPGSTGRSEANDGLVDNPLAFGRDDPSLQIFLPTKPDASAQSGFKNQADMSNGLRSEDWISLRLGDSASGNHGDPATTNGINSSHQMSTREGSMDTTTETASLLLGMNDSRQDKAKKQRSDNPFSFPRQKRSVRPRMYLSIDSDSE
Q: With B1 as the binder, how does the binding [1] read?
A: The binding was “binds weakly”.

Q: What about the binding [2] of the same binder?
A: The binding was “binds”.

Q: And the binding [3]?
A: The binding was “binds”.

Q: What about the binding [4] of the same binder?
A: The binding was “binds weakly”.

Q: What about the binding [5] of the same binder?
A: The binding was “binds weakly”.

Q: And the binding [6]?
A: The binding was “binds weakly”.
